Consider 28 compounds from the supplement of paper PMC11409438.

This is one part of the list. Single values are uncertain, as repeats are few or missing.

The subject of test [1] is Caenorhabditis elegans ST65 (ncIs13[ajm-1::GFP]). The experiment in a line: 'Larvae/adult' ratio (MetaXpress pharynx counts; minimum value 1, so it appears to include adults; growth inhibition read-out). The settings on record: 10 µM; exposure time: 4-5 days from L1 at 20°C.
Test [2] shares this test system. Briefly: vulvae per adult worm (MAPK/ERK-dependent vulval induction, MetaXpress) (vulvae/adult); higher = more vulval induction (less MAPK/ERK inhibition). The following applies: 10 µM; exposure time: 4-5 days from L1 at 20°C.

With `Cc1ccc(NC(=O)c2ccc(CN3CC[C@H](N(C)C)C3)c(C(F)(F)F)c2)cc1Nc1nccc(-c2cncnc2)n1` [Bafetinib (INNO-406)], the “'Larvae/adult' ratio” value in test [1] is 1.58. The “vulvae per adult worm” value in test [2] came to 0.875.

`CNc1ncc2cc(-c3cc(NC(=O)NCCC(C)(C)C)c(F)cc3C)c(C)nc2n1`: in test [1], the “'Larvae/adult' ratio” value came out at 3. In test [2], the “vulvae per adult worm” value is 1.19.

Consider `CCOCc1nc2c(N)nc3ccccc3c2n1CC(C)(C)O` [Resiquimod], for which the “'Larvae/adult' ratio” value in test [1] came to 2.13. Further, the “vulvae per adult worm” value in test [2] was determined as 1.1.

In the case of `C=CCc1cccc(/C=N/NC(=O)CN2CCN(Cc3ccccc3)CC2)c1O`, the “'Larvae/adult' ratio” value in test [1] is 1.68. The “vulvae per adult worm” value in test [2] came to 0.585.

Take `Nc1nc2cc(-c3ccc4ncc(C(=O)N5CCOCC5)n4c3)ccc2o1` [Serabelisib (INK-1117,MLN-1117,TAK-117)]: in test [1], the “'Larvae/adult' ratio” value is 2.07. Moreover, the “vulvae per adult worm” value in test [2] amounted to 0.815.

As for `COCCNCc1ccc(-c2cc3nccc(Oc4ccc(NC(=O)C5(C(=O)Nc6ccc(F)cc6)CC5)cc4F)c3s2)nc1` [Sitravatinib (MGCD516)], the “'Larvae/adult' ratio” value in test [1] came to 2.07. Besides, in test [2], the “vulvae per adult worm” value was 0.951.

For the compound `O=C(O)c1ccc(O)c2ncccc12`, the “'Larvae/adult' ratio” value in test [1] was determined as 1.75. In test [2], the “vulvae per adult worm” value came out at 0.528.

For the compound `Nc1nc(F)nc2c1ncn2[C@@H]1O[C@H](CO)[C@@H](O)[C@@H]1O` [Fludarabine], the “'Larvae/adult' ratio” value in test [1] is 2.38. For the same compound, the “vulvae per adult worm” value in test [2] came to 1.1.

`C1=N/C2=N/c3ccc(OCCN4CCCC4)c(c3)COC/C=C/COCc3cccc(c3)C(=C1)N2` [Pacritinib (SB1518)]: the “'Larvae/adult' ratio” value in test [1] came out at 4.12. Besides, the “vulvae per adult worm” value in test [2] was 0.588.

Regarding `O=C(O)CCCCC(CCSCc1ccccc1)SCc1ccccc1` (stereo unspecified), the “'Larvae/adult' ratio” value in test [1] was determined as 2.48. Further, the “vulvae per adult worm” value in test [2] was determined as 0.904.

Regarding `COc1cc([C@@H]2c3cc4c(cc3[C@@H](O[C@@H]3O[C@@H]5CO[C@@H](C)O[C@H]5[C@H](O)[C@H]3O)[C@H]3COC(=O)[C@H]23)OCO4)cc(OC)c1O` [Etoposide], the “'Larvae/adult' ratio” value in test [1] was found to be 2.77. Further, the “vulvae per adult worm” value in test [2] was determined as 1.09.

As for `C=CC(=O)Nc1cc2c(Nc3ccc(F)c(Cl)c3)ncnc2cc1OCCCN1CCOCC1` [Canertinib (CI-1033)], the “'Larvae/adult' ratio” value in test [1] turned out to be 2.36. For the same compound, the “vulvae per adult worm” value in test [2] was determined as 0.917.

Regarding `CO[C@@]12[C@H](COC(N)=O)C3=C(C(=O)C(C)=C(N)C3=O)N1C[C@@H]1N[C@@H]12` [Mitomycin C], in test [1], the “'Larvae/adult' ratio” value turned out to be 1.78. Also, in test [2], the “vulvae per adult worm” value came to 0.216.

As to `CNC(=O)c1ccccc1Sc1ccc2c(/C=C/c3ccccn3)n[nH]c2c1` [Axitinib], the “'Larvae/adult' ratio” value in test [1] was determined as 1.79. For the same compound, the “vulvae per adult worm” value in test [2] came out at 0.862.

Consider `CC(=O)c1c(C)c2cnc(Nc3ccc(N4CCNCC4)cn3)nc2n(C2CCCC2)c1=O`, for which, in test [1], the “'Larvae/adult' ratio” value amounted to 2.43. Also, the “vulvae per adult worm” value in test [2] was 0.973.

As to `CCn1c(-c2nonc2N)nc2c(C#CC(C)(C)O)ncc(OC[C@H]3CCCNC3)c21`, the “'Larvae/adult' ratio” value in test [1] was determined as 2.75. Besides, the “vulvae per adult worm” value in test [2] was 1.

In the case of `C[C@H]1O[C@@H](O[C@H]2[C@@H](O)C[C@H](O[C@H]3[C@@H](O)C[C@H](O[C@H]4CC[C@@]5(C)[C@H](CC[C@@H]6[C@@H]5C[C@@H](O)[C@]5(C)[C@@H](C7=CC(=O)OC7)CC[C@]65O)C4)O[C@@H]3C)O[C@@H]2C)C[C@H](O)[C@@H]1O` [Digoxin], in test [1], the “'Larvae/adult' ratio” value is 1.29. Besides, in test [2], the “vulvae per adult worm” value was found to be 1.

In the case of `N#CC[C@H](C1CCCC1)n1cc(-c2ncnc3[nH]ccc23)cn1`, in test [1], the “'Larvae/adult' ratio” value came out at 1.69. In test [2], the “vulvae per adult worm” value is 0.517.

`NC(=O)c1cnc2[nH]ccc2c1N[C@@H]1[C@@H]2CC3C[C@H]1C[C@@](O)(C3)C2`: the “'Larvae/adult' ratio” value in test [1] was determined as 2. Moreover, the “vulvae per adult worm” value in test [2] amounted to 1.34.

Consider `CC1(C)NC(=O)N(c2ccc([N+](=O)[O-])c(C(F)(F)F)c2)C1=O` [Nilutamide], for which the “'Larvae/adult' ratio” value in test [1] came to 3.82. Besides, in test [2], the “vulvae per adult worm” value turned out to be 1.27.

As to `O=C(Nc1c[nH]nc1-c1nc2ccc(CN3CCOCC3)cc2[nH]1)NC1CC1`, the “'Larvae/adult' ratio” value in test [1] was 1.5. Further, the “vulvae per adult worm” value in test [2] worked out at 1.

For the compound `CN1CCN(c2ccc(C(=O)Nc3n[nH]c4ccc(Cc5cc(F)cc(F)c5)cc34)c(NC3CCOCC3)c2)CC1` [Entrectinib (RXDX-101)], the “'Larvae/adult' ratio” value in test [1] was determined as 1.38. Moreover, the “vulvae per adult worm” value in test [2] is 0.436.

`CC(C)(O)CNc1nc(Nc2ccnc(C(F)(F)F)c2)nc(-c2cccc(C(F)(F)F)n2)n1` [Enasidenib (AG-221)]: in test [1], the “'Larvae/adult' ratio” value was 4.45. For the same compound, the “vulvae per adult worm” value in test [2] was determined as 0.818.

For the compound `C=CCn1c(=O)c2cnc(Nc3ccc(N4CCN(C)CC4)cc3)nc2n1-c1cccc(C(C)(C)O)n1` [Adavosertib (MK-1775)], in test [1], the “'Larvae/adult' ratio” value amounted to 2.1. In test [2], the “vulvae per adult worm” value worked out at 0.905.

Regarding `CCNC(=O)CCC/C=C\C[C@@H]1[C@@H](/C=C/[C@@H](O)CCc2ccccc2)[C@H](O)C[C@@H]1O` [Bimatoprost], the “'Larvae/adult' ratio” value in test [1] was 1.57. Besides, in test [2], the “vulvae per adult worm” value is 0.893.

On to `Cc1nc(Nc2ncc(C(=O)Nc3c(C)cccc3Cl)s2)cc(N2CCN(CCO)CC2)n1` [Dasatinib], for which, in test [1], the “'Larvae/adult' ratio” value was determined as 1.62. In addition, the “vulvae per adult worm” value in test [2] stood at 0.917.

On to `CCC(C)n1ncn(-c2ccc(N3CCN(c4ccc(OCC5COC(Cn6cncn6)(c6ccc(Cl)cc6Cl)O5)cc4)CC3)cc2)c1=O` (stereo unspecified) [Itraconazole], for which, in test [1], the “'Larvae/adult' ratio” value is 2.5. Besides, the “vulvae per adult worm” value in test [2] turned out to be 0.889.

Regarding `N#CC1(c2ccc(NC(=O)c3cccnc3NCc3ccncc3)cc2)CCCC1`, the “'Larvae/adult' ratio” value in test [1] stood at 2.88. The “vulvae per adult worm” value in test [2] was 0.64.
